Values quoted from earlier work, collected in patent US6491948B1, “Composition comprising isoquercetin and ascorbic acid in a sustained release form” (Merck Patent GmbH, priority 1999, dated 2002).
For at least one compound, name, drawing or mass did not settle the structure.

Test system: ex vivo rabbit heart
Conditions: cited from earlier work

In the case of `O=c1c(O[C@@H]2O[C@H](CO)[C@@H](O)[C@H](O)[C@H]2O)c(-c2ccc(O)c(O)c2)oc2cc(O)cc(O)c12` [isoquercetin, quercetin-3-O-glucoside], the “biosynthesis and release of prostaglandin-like substances” value is listed as “inhibits the biosynthesis and release of prostaglandin-like substances”.
